Here are results for two molecules from patent EP1271240B1, “Silver halide color photographic material” (KONICA CORPORATION, priority 2001, dated 2003).

This series can be described thus: Visual evaluation of prints for color reproduction and blackness by five persons. The procedure:
Furthermore, samples were evaluated with respect to color reproduction in the following manner. First, Macbeth color checker was photographed using color negative film (Konica Color Centuria 400, available from Konica Corp.) and a camera (Konica FT-1 MOTOR, product by Konica Corp.). Then, photographed film was processed in color negative processing (CNK-4, available from Konica Corp.) and obtained negative images were printed on each of the foregoing sample Nos. 19 through 31 with a size of 82x117 mm, using Konica Color Printer CL-P 2000 (available from Konica Corp.), in which the printing condition was set for each of the samples so that gray on the color checker was reproduced as gray in the print. The thus obtained prints were visually evaluated with respect to color reproduction and blackness. Evaluation was conducted by five persons and marked in accordance with the number of persons approving the print, as below: […]

[1] abbreviates: prints of Macbeth color checker, number of five persons approving.

For the molecule `CCC(C)(C)c1ccc(OCCCCNC(=O)c2nn3c(-c4cc(Cl)cc(Cl)c4)n[nH]c3c2Cl)c(C(C)(C)CC)c1` [Coupler b], the blackness entry by setting is: (judgement in words, Table 3) “insufficient”; under setting [1], 2 (2 marks: 2 persons).
`CCC(C)(C)c1ccc(OCCCCNC(=O)C(NC(=O)c2nn3c(-c4ccc(Cl)c(Cl)c4)n[nH]c3c2Cl)C(C)C)c(C(C)(C)CC)c1` (stereo not shown) [Coupler d]: the blackness entry is reported as “insufficient” (judgement in words, Table 3) and 2 (2 marks: 2 persons) under setting [1].
